PubChem BioAssay AID587 (National Center for Advancing Translational Sciences (NCATS), 2007)
Among all 59,000 compounds or so, about 35 (0.06%) were called active. The shares of active, inactive and inconclusive entries below differ from those in the screen. No stated cut-off is given here; in the data, active means max dye-equivalent concentration above about 10 nM; inconclusive means between about 1.1 nM and that limit; inactive means weaker than that.

Assay: qHTS Assay for Spectroscopic Profiling in Texas Red Spectral Region
Details: Compound fluorescence, Texas Red channel, 547/618 nm; active compounds read high
Outline: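 Pin-transferred compounds and Texas Red standards go into 100 mM Tris buffer, pH 8.0. After 15 min at room temperature, plates are imaged with 547/618 nm filters. Each value is a dye-equivalent concentration derived from the per-plate dye curve.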
With `O=C1NC(Nc2ccccn2)(C(F)(F)F)C(=O)N1c1ccc(F)cc1` (configuration not stated) the max dye-equivalent concentration was inconclusive: 1.8 nM.
With `CSCCC(NC(=O)c1ccccc1)C(=O)NC1CCCC1` (configuration not stated) the max dye-equivalent concentration was inconclusive: 1.1 nM.
With `O=C(Nc1ccc(N2CCN(Cc3ccccc3)CC2)cc1)c1ncn[nH]1` the max dye-equivalent concentration was inconclusive: 1.3 nM.
With `COc1cccc(NC(=O)CNC(C)CCC(C)C)c1` (configuration not stated) the max dye-equivalent concentration was inconclusive: 1.3 nM.
With `Cn1c(=O)n(CCc2ccccc2)c(=O)c2c1nc1n2CCN1Cc1ccco1` the max dye-equivalent concentration was inconclusive: 1.1 nM.
With `O=C(Oc1ccc(-c2ccccc2)cc1)N1CCCCC1` the max dye-equivalent concentration was inconclusive: 1.1 nM.
For `CCN(CCCNC(=O)CN1C(=O)COc2ccccc21)c1cccc(C)c1`, the max dye-equivalent concentration was inconclusive: 1.5 nM.
In the case of `Cc1ccc(C(=O)Nc2nc(COc3ccccc3)cs2)s1`, the max dye-equivalent concentration is reported as inconclusive: 1.6 nM.
With `COc1ccc(C(=O)N(CN2CCCC2=O)c2nccs2)cc1OC` the max dye-equivalent concentration was inconclusive: 1.7 nM.
In the case of `Cc1cc(C)n(S(=O)(=O)c2ccc(C(C)(C)C)cc2)n1`, the max dye-equivalent concentration is reported as inconclusive: 1.5 nM.
For `CCOC(=O)c1ccccc1NS(=O)(=O)c1ccccc1`, the max dye-equivalent concentration was inconclusive: 1.1 nM.
In the case of `CCN(CC)S(=O)(=O)c1ccc2[nH]cc(C(=O)NCCN3CCCCC3C)c(=O)c2c1` (configuration not stated), the max dye-equivalent concentration is reported as inconclusive: 1.2 nM.
With `O=C1OCCC1Sc1ncnc2sc3c(c12)CCC3` (configuration not stated) the max dye-equivalent concentration was inconclusive: 1.3 nM.
In the case of `Cc1ccc2cc3c(NC(=O)CC(C)C)nn(C)c3nc2c1`, the max dye-equivalent concentration is reported as inconclusive: 1.1 nM.
In the case of `COc1ccc(C)cc1NC(=O)C1CC(=O)OC12CCCCC2` (configuration not stated), the max dye-equivalent concentration is reported as inconclusive: 1.2 nM.
For `N[C@@H](Cc1[nH]nc2ccccc12)C(=O)O`, the max dye-equivalent concentration was “inactive”.
In the case of `COC(=O)c1c(NC(=O)C2CC=CCC2C(=O)O)sc(C(N)=O)c1C` (configuration not stated), the max dye-equivalent concentration is reported as inconclusive: 1.5 nM.
In the case of `COCCn1c(Sc2ccc(C)cc2)nc2c1c(=O)[nH]c(=O)n2C`, the max dye-equivalent concentration is reported as inconclusive: 1.1 nM.
For `Cc1noc(C)c1CSc1nnc(C)c(=O)[nH]1`, the max dye-equivalent concentration was inconclusive: 1.5 nM.
For `CCOc1ccc(Cl)cc1S(=O)(=O)N1CCCC1`, the max dye-equivalent concentration was inconclusive: 1.1 nM.
For `N[C@@H](Cc1ccccc1)c1nnc2sc(SCc3ccccc3)nn12`, the max dye-equivalent concentration was inconclusive: 1.1 nM.
With `Cc1ccc(-n2nc(-c3cccnc3)cc2C(=O)N2CCOCC2)c(C)c1` the max dye-equivalent concentration was inconclusive: 1.1 nM.
In the case of `C[C@H](N)C(=O)OC(C)(C)Cc1ccc(Cl)cc1`, the max dye-equivalent concentration is reported as “inactive”.
In the case of `C=CCOc1ccc2c(c1)c(S(=O)(=O)c1ccc(C)cc1)cn2COC`, the max dye-equivalent concentration is reported as inconclusive: 1.6 nM.
For `CCc1ccc(Nc2nc(N)nc(CSc3nnnn3-c3ccccc3)n2)cc1`, the max dye-equivalent concentration was inconclusive: 1.6 nM.
With `CC(c1ccccc1)C1CC(=O)N(Cc2ccco2)C1=O` (configuration not stated) the max dye-equivalent concentration was inconclusive: 1.1 nM.
For `CN(C)C(=N)N=C(N)N`, the max dye-equivalent concentration was inconclusive: 1.4 nM.
In the case of `Cc1ccc(C2C(C(=O)c3cc4ccccc4o3)=C(O)C(=O)N2CCN2CCOCC2)o1` (configuration not stated), the max dye-equivalent concentration is reported as “inactive”.
With `CC(=O)c1cc(-c2ccc(F)cc2)n(CCC(=O)Nc2cc(C)[nH]n2)c1C` the max dye-equivalent concentration was inconclusive: 1.5 nM.
In the case of `CC(O)CNc1nc2ccccc2n1-c1ncnc2sc3c(c12)CCC3` (configuration not stated), the max dye-equivalent concentration is reported as inconclusive: 1.1 nM.
In the case of `COc1ccccc1-n1cnc2cc(NC(C)=O)ccc21`, the max dye-equivalent concentration is reported as inconclusive: 2.3 nM.
With `Cc1ccc(S(=O)(=O)OC2CCN(C)CC2)cc1` the max dye-equivalent concentration was “inactive”.
In the case of `CN1C(=O)N(C)C2C1N(C)S(=O)(=O)N2C` (configuration not stated), the max dye-equivalent concentration is reported as inconclusive: 1.7 nM.
In the case of `Cc1noc(C)c1COC(=O)c1ccc2ccccc2n1`, the max dye-equivalent concentration is reported as inconclusive: 1.5 nM.
With `COc1ccc(N2CCN(C(=O)CN3C(=O)C4CC=CCC4C3=O)CC2)cc1` (configuration not stated) the max dye-equivalent concentration was inconclusive: 1.4 nM.
In the case of `CCOC(=O)CCc1c(C)nc(SCC(=O)O)c(C#N)c1C`, the max dye-equivalent concentration is reported as inconclusive: 2.8 nM.
In the case of `CCn1c(SCC(=O)Nc2nccs2)nnc1-c1ccc(S(=O)(=O)N2CCCCC2)cc1`, the max dye-equivalent concentration is reported as inconclusive: 1.2 nM.
With `CCCCN1c2cc(C)c(O)cc2C(C(=O)OCC)C1C` (configuration not stated) the max dye-equivalent concentration was inconclusive: 1.1 nM.
With `CC(=O)N=c1sc2cc(C)ccc2n1C` the max dye-equivalent concentration was inconclusive: 1.4 nM.
In the case of `N#Cc1c(NC(=O)CSc2ncn[nH]2)sc2c1CCCCC2`, the max dye-equivalent concentration is reported as inconclusive: 1.2 nM.
In the case of `CCOC(=O)CC(=O)CSc1nc(N)c(C#N)c(-c2ccc(F)cc2)c1C#N`, the max dye-equivalent concentration is reported as inconclusive: 1.2 nM.
With `CCOC(=O)c1nc(NCc2cccnc2)c2ccccc2n1` the max dye-equivalent concentration was inconclusive: 1.3 nM.
With `CCOC(=O)c1ccccc1NC(=O)COc1ccccc1` the max dye-equivalent concentration was inconclusive: 1.1 nM.
For `Cc1noc(C)c1CSc1nnc(-c2ccncc2)n1-c1cccc(Cl)c1C`, the max dye-equivalent concentration was inconclusive: 1.9 nM.
With `CC1CCc2nc(NCCO)nc(C(F)(F)F)c2C1` (configuration not stated) the max dye-equivalent concentration was inconclusive: 1.3 nM.
For `CC(C)(C#N)NC(=O)c1ccco1`, the max dye-equivalent concentration was inconclusive: 1.3 nM.
For `COc1ccc(CNC(=O)C2CCN(S(=O)(=O)c3c(C)n[nH]c3C)CC2)cc1`, the max dye-equivalent concentration was inconclusive: 1.9 nM.
With `O=C(C1CCN(S(=O)(=O)c2ccc(Br)s2)CC1)N1CCc2ccccc21` the max dye-equivalent concentration was inconclusive: 1.6 nM.
For `CSCCNC(=O)c1ccc(C(C)(C)C)cc1`, the max dye-equivalent concentration was inconclusive: 1.2 nM.
For `O=C(NC1CCCCC1)N1CCC(c2nc3ccc(Cl)cc3[nH]2)CC1`, the max dye-equivalent concentration was inconclusive: 1.1 nM.
For `COCCN1Cc2c(sc(C)c2C)N(C(=O)c2ccccc2)C1`, the max dye-equivalent concentration was inconclusive: 1.2 nM.
For `O=C(Nc1ccc(F)cc1F)c1cc2n(n1)C(C(F)(F)F)C1CCCCC1N2` (configuration not stated), the max dye-equivalent concentration was inconclusive: 1.4 nM.
In the case of `CC(=O)Nc1cccc(-c2nnc3n2CC(C)S3)c1` (configuration not stated), the max dye-equivalent concentration is reported as inconclusive: 1.7 nM.
In the case of `CCCCCCOC(=O)C(C#N)c1nc2ccccc2nc1N1CCN(C)CC1` (configuration not stated), the max dye-equivalent concentration is reported as inconclusive: 1.2 nM.
In the case of `CC1CCCN(c2nc3ccccc3nc2C(C#N)C(=O)OC2CCCCC2)C1` (configuration not stated), the max dye-equivalent concentration is reported as inconclusive: 1.2 nM.
For `CC(=O)c1c(N2CCN(c3cccc(Cl)c3)CC2)nc(=S)n(-c2ccccc2)c1C`, the max dye-equivalent concentration was inconclusive: 1.1 nM.
For `O=C(CCCn1c(=O)oc2ccccc21)Nc1cccnc1`, the max dye-equivalent concentration was inconclusive: 2.1 nM.
